The campaign covered roughly 78,000 compounds. About 1,800 (2.3%) were called active. The inconclusive results got no clear call from the source; some entries with a clear call stand among them for comparison. Cut-off read from the data, not from the text of the source: active = inhibition above about 30%; inconclusive = mostly about 10% to 28%; inactive = weaker than that.
Biological target: Interleukin-1 receptor-like 1 (Homo sapiens) (UniProt Q01638)
Test: blocks human ST2 binding to IL-33, primary screen, biochemical, AlphaLISA (AID 1259354)
Conditions: AlphaLISA ST2-Fc/biotin-IL-33 interaction, 1 h; at 17 µM, active compounds read high

Amino acid sequences for entries named in this document (tags omitted). A change or cut given only in a name is not applied to a line headed by its entry.
UniProt Q01638: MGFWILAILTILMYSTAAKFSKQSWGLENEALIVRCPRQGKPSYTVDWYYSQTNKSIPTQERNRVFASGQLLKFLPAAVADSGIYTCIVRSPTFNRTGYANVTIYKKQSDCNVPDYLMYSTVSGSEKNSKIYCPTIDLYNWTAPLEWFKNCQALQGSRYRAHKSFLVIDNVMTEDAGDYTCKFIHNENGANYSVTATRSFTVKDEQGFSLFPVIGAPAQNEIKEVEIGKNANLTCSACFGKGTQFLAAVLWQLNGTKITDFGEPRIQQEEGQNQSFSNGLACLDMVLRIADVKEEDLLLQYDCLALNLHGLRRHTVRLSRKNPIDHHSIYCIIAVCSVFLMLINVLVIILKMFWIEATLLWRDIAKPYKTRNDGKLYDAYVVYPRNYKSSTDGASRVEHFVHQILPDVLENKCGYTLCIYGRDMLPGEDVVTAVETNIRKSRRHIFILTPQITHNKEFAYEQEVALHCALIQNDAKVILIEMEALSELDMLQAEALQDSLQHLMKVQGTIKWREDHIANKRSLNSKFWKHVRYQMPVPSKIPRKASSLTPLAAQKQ

| SMILES | inhibition |
| --- | --- |
| Cc1ccc(CNC(=O)c2ccc(Cn3nnc4ccsc4c3=O)cc2)cc1 | inactive |
| CC1SC2(CCCCC2)N(c2ccc(Oc3ccccc3)cc2)C1=O (configuration not stated) | inactive |
| COc1ccc(-n2nc3c(c2NC(=O)C2CCCCC2)CSC3)cc1 | inconclusive: 18% |
| CN1C(=O)C2(CCCN(C(=O)CCc3cc(=O)[nH]o3)C2)c2ccccc21 (configuration not stated) | inconclusive: 18% |
| COc1ccc(Br)cc1C1Nc2ccc3ncccc3c2C2=C1C(=O)CC(C)(C)C2 (configuration not stated) | inactive |
| Cc1cc2ccccc2n1CCNC(=O)C(C)Oc1ccccc1 (configuration not stated) | inconclusive: 13% |
| CN(Cc1cccc2ncccc12)C(=O)CCC1(Cc2cccc3ccccc23)CCC(=O)N1 (configuration not stated) | inconclusive: 17% |
| CCOc1ccc(/C=C2\N=C(c3ccccc3C)OC2=O)cc1 | inconclusive: 14% |
| O=S(=O)(c1ccc(-c2csc(=Nc3ccc(Cl)cc3)n2CCCO)cc1)N1CCCC1 | active: 40% |
| CN(Cc1ncc[nH]1)CC1CC(=O)N(C2CCCC2)C1 (configuration not stated) | inconclusive: 14% |
| CCn1c2ccccc2c2cc(NC(=O)CSc3cc(=O)n(C)c4ccccc34)ccc21 | inactive |
| COc1ccc2nc(NC(=O)NC3CCCCC3)sc2c1 | inconclusive: 21% |
| Cc1ccc(OCC(O)CN2CCN(Cc3ccc4c(c3)OCO4)CC2)cc1C (configuration not stated) | inconclusive: 14% |
| CN(C)c1ccc(C2NC(c3ccc(N(C)C)cc3)C3CCCC2C3=O)cc1 (configuration not stated) | inconclusive: 20% |
| O=C(O)CCS(=O)(=O)c1ccc(-c2ccc(S(=O)(=O)CCC(=O)O)cc2)cc1 | inactive |
| Cc1nccn1CC1(CNC(=O)[C@@H]2C[C@@H]3C=C[C@H]2C3)CC1 | inconclusive: 19% |
| Cc1ccnc(NS(=O)(=O)c2ccc(NC(=O)c3cccc([N+](=O)[O-])c3)cc2)n1 | inactive |
| O=[N+]([O-])c1ccccc1CN1CCN(CCOCCO)CC1 | inactive |
| COCCN1CCC(C(=O)N2CCOc3ccc(Cl)cc3C2)C1 (configuration not stated) | inconclusive: 22% |
| CC(C)(C)c1ccc(OC(=O)c2ccc(Br)o2)cc1 | inconclusive: 10% |
| [O-][n+]1cccc2c(Br)cc(Br)c(O)c21 | active: 30% |
| Oc1ccc(Cl)cc1C1=Nc2ncnn2C(c2ccccc2)C1 (configuration not stated) | inactive |
| O=C(Nc1c(-c2ccccc2)nc2ccccn12)c1cccc([N+](=O)[O-])c1 | inconclusive: 14% |

5 of the compounds above, in CSV form:
SMILES,inhibition
CN1C(=O)C2(CCCN(C(=O)CCc3cc(=O)[nH]o3)C2)c2ccccc21 (configuration not stated),inconclusive: 18%
Cc1cc2ccccc2n1CCNC(=O)C(C)Oc1ccccc1 (configuration not stated),inconclusive: 13%
CN(Cc1ncc[nH]1)CC1CC(=O)N(C2CCCC2)C1 (configuration not stated),inconclusive: 14%
Cc1nccn1CC1(CNC(=O)[C@@H]2C[C@@H]3C=C[C@H]2C3)CC1,inconclusive: 19%
O=[N+]([O-])c1ccccc1CN1CCN(CCOCCO)CC1,inactive

Quoted at random: 3 entries already listed

| SMILES | inhibition |
| --- | --- |
| O=C(O)CCS(=O)(=O)c1ccc(-c2ccc(S(=O)(=O)CCC(=O)O)cc2)cc1 | inactive |
| Cc1ccc(CNC(=O)c2ccc(Cn3nnc4ccsc4c3=O)cc2)cc1 | inactive |
| [O-][n+]1cccc2c(Br)cc(Br)c(O)c21 | active: 30% |

(further entries)

| SMILES | inhibition |
| --- | --- |
| CC(SC1=NN2CCCC(=O)N=C2S1)c1ccccc1 (configuration not stated) | inactive |
| Cc1ccc(NC(=O)/C(=C/c2ccc3c(c2)OCO3)NC(=O)c2ccc(Br)cc2)cc1 | inactive |
| CC(C)CCNC(=O)C1(O)c2cc(Br)ccc2NC(=O)N1c1ccc(Cl)cc1 (configuration not stated) | inactive |
| COc1ccccc1N(CC(O)CN1C(=O)NC(C)(C)C1=O)S(=O)(=O)c1ccccc1 (configuration not stated) | inconclusive: 17% |
| CCNC(=O)N1CC[C@H]2CC(=O)N(CCN3CCNC3=O)CC[C@H]2C1 | inactive |
| CC(C)NC(=O)N[C@H]1C[C@@H](c2nc(-c3ccc(OC(F)(F)F)cc3)no2)N(C)C1 | inconclusive: 24% |
| CCN1CCN(S(=O)(=O)c2ccc3oc(C(=O)O)c(C)c3c2)CC1 | inactive |
| Cc1ccccc1Nc1nnc(-c2ccc(C)c(S(N)(=O)=O)c2)c2ccccc12 | inconclusive: 20% |
| N#CC(C#N)=C1C=C(c2ccccc2)Sc2ccccc21 | inconclusive: 16% |
| CCCCc1ccc(NC(=O)c2ccc([N+](=O)[O-])o2)cc1 | inconclusive: 18% |
| c1coc(-c2nnc([C@H]3CCN(Cc4cnc5ccccc5c4)C3)o2)c1 | inconclusive: 19% |
| Cc1c(N=Cc2cc([N+](=O)[O-])ccc2N2CCOCC2)c(=O)n(-c2ccccc2)n1C | inconclusive: 24% |
| CCc1ccc(S(=O)(=O)N=C2C=C(Nc3ccc(O)cc3)C(=O)c3ccccc32)cc1 | active: 91% |
| O=C(Nc1ccc(Cl)c(Cl)c1)[C@@H]1C[C@@H]1c1ccccc1 | inactive |
| CCC(C)NC(=O)c1ccc2c(c1)ncn2C1CCCC1 (configuration not stated) | inconclusive: 17% |
| Cc1ccc(C(c2sc3nc(C)nn3c2O)N2CCN(c3ccccc3F)CC2)cc1 (configuration not stated) | inconclusive: 16% |
| CCCCn1c(=O)c2c(nc3n2CCN3c2ccc(C)c(C)c2)n(C)c1=O | inconclusive: 16% |
| COCc1nnc(NC(=O)CN2CCC(N3CCCC3=O)CC2)s1 | inconclusive: 21% |
| O=C(NCC1CCCO1)C1CCN(S(=O)(=O)N2CCCCC2)CC1 (configuration not stated) | inactive |
| CCCCN(CC)C(=O)c1cc2cc3ccc(OC)cc3nc2s1 | inconclusive: 12% |
| CCCCc1nc2oc(C(=O)c3ccccc3)c(N)c2c2c1COC(C)(C)C2 | inconclusive: 14% |
| O=C1Nc2ccccc2C(O)(C(=O)NC2CC2)N1c1ccccc1 (configuration not stated) | inconclusive: 10% |
| CC1(C)C(c2ccccc2)=NC(c2ccc(F)cc2)N1O (configuration not stated) | inconclusive: 15% |

| SMILES | inhibition |
| --- | --- |
| CN(Cc1csc(-c2ccccc2)n1)Cc1nc(Cc2cccc(F)c2)no1 | inconclusive: 12% |
| Cc1ccc([N+](=O)[O-])cc1N=Cc1nc(-c2ccc(Cl)cc2)oc1O | inconclusive: 26% |
| CC1CCCCC1NC(=O)C1(S(=O)(=O)c2ccc(Cl)cc2)CC1 (configuration not stated) | inconclusive: 21% |
| Cc1nc(-c2ccc(C(=O)N3CCCC3C(=O)Nc3ccc(C(C)C)cc3)cc2)no1 (configuration not stated) | inconclusive: 23% |
| COc1ccccc1C1C(C#N)=C(N)OC(C)=C1C(=O)Nc1ccc(SC)cc1 (configuration not stated) | inconclusive: 22% |
| CNC(=O)[C@@H]1C[C@H](N)CN1C(=O)CCn1nc(C)c(C)c1C | inconclusive: 13% |
| COC(=O)c1ccccc1S(=O)(=O)N1CCCC1c1ccccn1 (configuration not stated) | inconclusive: 13% |
| O=C(Nc1ccccc1[N+](=O)[O-])C1=C(O)CCn2c1nc1ccccc12 | active: 34% |
| CCCn1c(C(C)NC(=O)COc2ccccc2)nc2ccccc21 (configuration not stated) | inconclusive: 10% |
| CCOc1cc(-c2nc3sc4c(c3c(=O)[nH]2)CCCC4)ccc1O | inactive |
| CC(=O)Nc1ccccc1C(=O)N1CCN(c2cccc(C)c2C)CC1 | inconclusive: 14% |
| O=C1C(=O)N(CCc2ccccc2)C(c2ccc(Cl)cc2)C1=C(O)c1ccccc1 (configuration not stated) | inactive |
| C=C1C(=O)OC2C(OC(=O)C=C(C)C)C(C)=C3C(=O)C=C(C)C3C(O)C12 (configuration not stated) | inconclusive: 15% |
| CC(C)(C)c1cc(CNC(=O)c2cccc(Cn3cccn3)c2)[nH]n1 | inconclusive: 11% |
| Nc1ccc(C(=O)N2N=C(C(F)(F)F)CC2(O)c2ccc(F)cc2)cc1 (configuration not stated) | inactive |
| O=C(Nc1cc(Br)ccc1O)c1cc(-c2ccco2)on1 | inconclusive: 13% |
| N#CC1=C(N)C(C#N)(C#N)C(c2ccc[nH]2)C2CCCC=C12 (configuration not stated) | inconclusive: 17% |
| Cc1c(-c2ccccc2)[nH]c2c(CNC(=O)c3cnn(C)c3)cc(Cl)cc12 | inconclusive: 26% |
| CC(c1ccc(-c2ccc3c(c2)OCO3)cc1)N1CCOCC1 (configuration not stated) | inconclusive: 11% |
| Nc1ccc2[nH]c3ccccc3c2c1 | active: 66% |
| COc1cccc(-c2n[nH]c3c2CN(C(=O)C2(C)CC(C)=NO2)CC3)c1 (configuration not stated) | inconclusive: 21% |
| O=C(c1cccc([N+](=O)[O-])c1)c1ccc2c(c1)C(=O)N(c1nccs1)C2=O | inconclusive: 11% |
| Cc1ccc(-c2noc([C@@H]3Cc4nc[nH]c4CN3C(=O)c3cccs3)n2)cc1 | inconclusive: 16% |

| SMILES | inhibition |
| --- | --- |
| COc1cc(OC)cc(C(=O)N(c2cc(C)cc(C)c2)C2C=CS(=O)(=O)C2)c1 (configuration not stated) | inconclusive: 17% |
| Cc1cccc(Cc2nnc(NC(=O)N(C)Cc3ccco3)s2)c1 | inconclusive: 14% |
| O=C(O)CCC(=O)N1CCc2cc(S(=O)(=O)N3CCCC3)ccc21 | inconclusive: 10% |
| O=[N+]([O-])c1cc(Cl)ccc1N1CCCNCC1 | inactive |
| CC(=O)c1ccc(C(=O)Nc2ccc(N3CCOCC3)cc2)cc1 | inactive |
| CCOC(=O)C1(CCOC)CCN(Cc2ccc(N(C)c3ccccc3)cc2)CC1 | inactive |
| O=C(NCc1cccnc1)c1cc(-c2cccs2)nc2ccccc12 | inconclusive: 12% |
| Nc1nonc1-c1noc(-c2cc([N+](=O)[O-])nn2Cc2ccccc2)n1 | inconclusive: 20% |
| NC(=O)c1cccnc1N1CCCC(c2[nH]ncc2-c2ccc(F)cc2)C1 (configuration not stated) | inconclusive: 12% |
| CC(C)N(C(=O)CSc1nnc(-c2ccccc2)o1)c1ccccc1 | inactive |
| Cc1cccc(Cc2nnc(CCC(=O)N3CCCC3c3ccc(F)cc3)o2)c1 (configuration not stated) | inconclusive: 11% |
| O=C(O)c1cc(O[C@@H]2O[C@H](CO)[C@@H](O)[C@H](O)[C@H]2O)c2ccccc2c1O | inconclusive: 14% |
| CC(C)(O)C#Cc1ccc(C(=O)N2CCCC(CNS(=O)(=O)c3cccs3)C2)o1 (configuration not stated) | inconclusive: 18% |
| CCOC(=O)C1(Cc2ccccc2C)CCCN(C(=O)CCCn2cncn2)C1 (configuration not stated) | inconclusive: 13% |
| CCOC(=O)C1C(=O)C=C(c2ccc(C)cc2)CC1c1ccc(N(C)C)cc1 (configuration not stated) | inconclusive: 29% |
| COc1ccc(C2(C(=O)N3CCCC(O)(CN(C)C)C3)CCCC2)cc1 (configuration not stated) | inconclusive: 11% |
| c1ccc(N2CCN(Cc3cccs3)CC2)cc1 | inconclusive: 13% |
| CCSc1nnc2c(n1)OC(c1ccc3c(c1)OCO3)N(C(C)=O)c1ccccc1-2 (configuration not stated) | inconclusive: 15% |
| COc1cccc(NC(=O)CSc2c3c(nc4ccccc24)CCC3)c1 | inactive |
| OCc1ccc(-c2cccc3ccnn23)cc1 | inactive |
| CC1CCN(C2=NC(=O)/C(=C\c3ccc(Cl)cc3)S2)CC1 | inconclusive: 18% |
| CC(=O)N(c1ccc2oc3c(c2c1)CCCC3)S(=O)(=O)c1ccc(C)c([N+](=O)[O-])c1 | inconclusive: 15% |
| N/C(=N/OC(=O)c1ccc(Br)o1)c1ccncc1 | inconclusive: 15% |

— PubChem BioAssay AID1259354 (Paczesny and Yang Labs, IUPUI and University of Michigan, 2018)
